The record followed here is PMC10015868.

The target in this assay is T1, Flag‐tagged IKKβ (UniProt O14920).
T1 sequence: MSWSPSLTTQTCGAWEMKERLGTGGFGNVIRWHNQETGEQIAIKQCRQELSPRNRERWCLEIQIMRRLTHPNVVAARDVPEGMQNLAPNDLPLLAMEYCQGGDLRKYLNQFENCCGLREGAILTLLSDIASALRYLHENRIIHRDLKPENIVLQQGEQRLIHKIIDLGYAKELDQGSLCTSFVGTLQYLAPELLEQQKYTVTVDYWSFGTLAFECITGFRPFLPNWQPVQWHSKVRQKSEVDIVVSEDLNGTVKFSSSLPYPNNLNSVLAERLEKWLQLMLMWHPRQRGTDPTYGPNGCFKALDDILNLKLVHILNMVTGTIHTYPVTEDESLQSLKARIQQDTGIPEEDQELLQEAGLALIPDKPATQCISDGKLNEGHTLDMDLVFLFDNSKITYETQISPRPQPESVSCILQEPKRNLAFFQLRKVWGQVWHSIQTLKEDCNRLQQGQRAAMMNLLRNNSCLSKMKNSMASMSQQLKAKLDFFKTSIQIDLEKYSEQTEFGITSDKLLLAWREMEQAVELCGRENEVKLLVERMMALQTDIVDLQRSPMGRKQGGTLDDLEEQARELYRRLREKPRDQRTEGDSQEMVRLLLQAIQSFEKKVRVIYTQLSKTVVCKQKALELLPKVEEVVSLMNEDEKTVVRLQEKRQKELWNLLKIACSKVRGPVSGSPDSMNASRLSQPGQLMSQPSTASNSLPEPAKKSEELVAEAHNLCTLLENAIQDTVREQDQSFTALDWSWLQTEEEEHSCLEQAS
Nature of the assay: co-IP; HEK293T cells transfected with tagged plasmids (in some panels with circWDR37 or forced PKR expression); lysed in coIP buffer, antibody at 4 °C overnight, beads 1 h at room temperature, washed ten times, western blot.

No constants are given. Whether binding was seen depends on the method and setting. Binding seen in cells or lysates may run through a third protein. A result given as binding can be weak or reduced; the word gives no strength. Where a sequence is shown, tags or fusion partners need not be part of it.

For “PKR‐KD (KD domain of PKR), HA-tagged (domain or fragment)”, the binding entry was “binds”.
